This is an account of results in PMC12785156.

Experiment [1] concerns the target T1, AtHPPD fused to the DNA-binding domain (pGBKT7 bait) (Arabidopsis thaliana) (UniProt P93836).
T1 sequence: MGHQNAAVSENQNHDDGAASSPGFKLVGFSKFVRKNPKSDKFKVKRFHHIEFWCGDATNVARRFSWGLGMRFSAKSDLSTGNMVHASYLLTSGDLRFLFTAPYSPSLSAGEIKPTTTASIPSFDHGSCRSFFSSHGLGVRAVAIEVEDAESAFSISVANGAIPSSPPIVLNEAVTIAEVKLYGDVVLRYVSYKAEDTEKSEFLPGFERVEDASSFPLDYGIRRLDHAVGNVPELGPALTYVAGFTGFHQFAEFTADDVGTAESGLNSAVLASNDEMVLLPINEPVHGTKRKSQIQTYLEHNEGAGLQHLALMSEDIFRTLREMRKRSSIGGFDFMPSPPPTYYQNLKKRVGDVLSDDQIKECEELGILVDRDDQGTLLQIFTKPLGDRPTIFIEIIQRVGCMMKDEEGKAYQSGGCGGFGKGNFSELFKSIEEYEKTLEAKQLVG
Put plainly: two-hybrid; yeast Y2HGold; AtHPPD in pGBKT7 (bait), PUB11 in pGADT7 (prey); growth and alpha-gal activity on SD/-Trp/-His/-Leu + X-alpha-gal (TDO/X).

Experiment [2] has as its target T2, AtHPPD-nYFP (Arabidopsis thaliana) (UniProt P93836).
T2 sequence: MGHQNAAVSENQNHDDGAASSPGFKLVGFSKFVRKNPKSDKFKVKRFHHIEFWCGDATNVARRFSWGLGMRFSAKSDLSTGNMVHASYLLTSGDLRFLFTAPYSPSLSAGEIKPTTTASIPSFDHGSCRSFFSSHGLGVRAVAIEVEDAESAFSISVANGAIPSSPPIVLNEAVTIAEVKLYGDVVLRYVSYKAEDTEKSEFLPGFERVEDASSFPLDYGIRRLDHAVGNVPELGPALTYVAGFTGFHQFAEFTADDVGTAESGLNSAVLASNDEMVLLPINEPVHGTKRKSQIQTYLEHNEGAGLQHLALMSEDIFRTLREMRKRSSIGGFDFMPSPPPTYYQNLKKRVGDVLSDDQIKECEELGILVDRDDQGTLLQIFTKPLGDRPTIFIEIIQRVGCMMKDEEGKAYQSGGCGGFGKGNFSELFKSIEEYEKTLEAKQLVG
Put plainly: split reporter; BiFC: PUB11-cYFP and AtHPPD-nYFP co-infiltrated in N. benthamiana leaf epidermal cells; confocal microscopy after 2-3 days; signal in the nucleus.

The target in experiment [3] is T3, MBP-PUB11-U-box (Arabidopsis thaliana) (UniProt Q8GUG9).
T3 sequence: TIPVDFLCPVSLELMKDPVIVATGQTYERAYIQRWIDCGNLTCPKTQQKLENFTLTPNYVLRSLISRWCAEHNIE
Put plainly: pull-down; purified MBP-PUB11 full length or truncated variants (or MBP alone) with purified His-AtHPPD, 4°C; immunoblot with anti-His and anti-MBP; both purified.

Results are given in words; binding and its absence hold for the method and conditions named. For part of these data: Binding seen in cells or lysates may run through a third protein. Some binding calls cover weakened binding; strength is not graded here. Where a sequence is shown, tags or fusion partners need not be part of it.

B1: full-length PUB11 fused to the activation domain (pGADT7 prey) (enzyme, UniProt Q8GUG9 1-612)
chain: MAGGIVSPASLLDLIADIVEIPLNTGMFKKDCADLTRRVCLLTHLLEEIRDSTPIDSAASSSSENDWWSDLVVGLQAAKRLLSTARFQARDSSDGAAKRISFQFQCVTWKLEKALSNLPYDLYDISDEVGEQVELARSQLRRAMQRYGSLNSNKFSSALSEPMERDGFSNVIKIKAEEKLESVSETLHFGEEEEKQSSPPLRRSSSISLAYYLSKDADTDRLDKMVNKNTDESKKSDKLTIPVDFLCPVSLELMKDPVIVATGQTYERAYIQRWIDCGNLTCPKTQQKLENFTLTPNYVLRSLISRWCAEHNIEQPAGYINGRTKNSGDMSVIRALVQRLSSRSTEDRRNAVSEIRSLSKRSTDNRILIAEAGAIPVLVNLLTSEDVATQENAITCVLNLSIYENNKELIMFAGAVTSIVQVLRAGTMEARENAAATLFSLSLADENKIIIGGSGAIPALVDLLENGTPRGKKDAATALFNLCIYHGNKGRAVRAGIVTALVKMLSDSTRHRMVDEALTILSVLANNQDAKSAIVKANTLPALIGILQTDQTRNRENAAAILLSLCKRDTEKLITIGRLGAVVPLMDLSKNGTERGKRKAISLLELLRKACQ
Take B1: the binding result in experiment [1] was “binds”.

B2: PUB11-cYFP (enzyme, UniProt Q8GUG9 1-612)
chain: MAGGIVSPASLLDLIADIVEIPLNTGMFKKDCADLTRRVCLLTHLLEEIRDSTPIDSAASSSSENDWWSDLVVGLQAAKRLLSTARFQARDSSDGAAKRISFQFQCVTWKLEKALSNLPYDLYDISDEVGEQVELARSQLRRAMQRYGSLNSNKFSSALSEPMERDGFSNVIKIKAEEKLESVSETLHFGEEEEKQSSPPLRRSSSISLAYYLSKDADTDRLDKMVNKNTDESKKSDKLTIPVDFLCPVSLELMKDPVIVATGQTYERAYIQRWIDCGNLTCPKTQQKLENFTLTPNYVLRSLISRWCAEHNIEQPAGYINGRTKNSGDMSVIRALVQRLSSRSTEDRRNAVSEIRSLSKRSTDNRILIAEAGAIPVLVNLLTSEDVATQENAITCVLNLSIYENNKELIMFAGAVTSIVQVLRAGTMEARENAAATLFSLSLADENKIIIGGSGAIPALVDLLENGTPRGKKDAATALFNLCIYHGNKGRAVRAGIVTALVKMLSDSTRHRMVDEALTILSVLANNQDAKSAIVKANTLPALIGILQTDQTRNRENAAAILLSLCKRDTEKLITIGRLGAVVPLMDLSKNGTERGKRKAISLLELLRKACQ
With B2, in experiment [2], the binding result is on record as “binds”.

B3: His-AtHPPD (Arabidopsis thaliana 4-hydroxyphenylpyruvate dioxygenase) (enzyme, UniProt P93836 1-445)
chain: MGHQNAAVSENQNHDDGAASSPGFKLVGFSKFVRKNPKSDKFKVKRFHHIEFWCGDATNVARRFSWGLGMRFSAKSDLSTGNMVHASYLLTSGDLRFLFTAPYSPSLSAGEIKPTTTASIPSFDHGSCRSFFSSHGLGVRAVAIEVEDAESAFSISVANGAIPSSPPIVLNEAVTIAEVKLYGDVVLRYVSYKAEDTEKSEFLPGFERVEDASSFPLDYGIRRLDHAVGNVPELGPALTYVAGFTGFHQFAEFTADDVGTAESGLNSAVLASNDEMVLLPINEPVHGTKRKSQIQTYLEHNEGAGLQHLALMSEDIFRTLREMRKRSSIGGFDFMPSPPPTYYQNLKKRVGDVLSDDQIKECEELGILVDRDDQGTLLQIFTKPLGDRPTIFIEIIQRVGCMMKDEEGKAYQSGGCGGFGKGNFSELFKSIEEYEKTLEAKQLVG
As for B3, in experiment [3], the binding result is “binds”.
